Measured values from patent US20060129225A1, “Device for the delivery of a cardioprotective agent to ischemic reperfused myocardium” (priority 2004, published 2006).

Experiment: Liquid formulations of sirolimus with PEG 200, ethanol and water (liquid chromatography)
Format: physicochemical
Conditions: 4 mg/ml PEG 200 formulation
From the text: In accordance with exemplary embodiments of the present invention, a series of liquid formulations were developed for the local or regional delivery of water insoluble compounds such as sirolimus and its analogs, including CCI-779, ABT-578 and everolimus, through weeping balloons and catheter injection needles. […] These liquid formulations increase the apparent solubility of the pharmacologically active but water insoluble compounds by two to four orders of magnitude as compared to the solubility limits of the compounds in water. These liquid formulations rely on the use of a very small amount of organic solvents such as Ethanol (typically less than two percent) and a larger amount of safe amphiphilic (of or relating to a molecule having a polar, water soluble group attached to a non-polar, water insoluble […]) excipients such as polyethylene glycol (PEG 200, PEG 400) and vitamin E TPGS to enhance the solubility of the compounds. These liquid formulations of highly water insoluble compounds are stable and readily flowable at room temperature. […]
Table 8, shown below, summarizes the concentrations of the excipient, the co-solvents and the drug for four different liquid formulations in accordance with exemplary embodiments of the present invention. The concentrations of each constituent were determined by liquid chromatography and are presented as weight by volume figures. […]

concentration relative to the solubility of sirolimus in water: four hundred to about one thousand
SMILES: CO[C@H]1C[C@@H]2CC[C@@H](C)[C@@](O)(O2)C(=O)C(=O)N2CCCC[C@H]2C(=O)O[C@H]([C@H](C)C[C@@H]2CC[C@@H](O)[C@H](OC)C2)CC(=O)[C@H](C)/C=C(\C)[C@@H](O)[C@@H](OC)C(=O)[C@H](C)C[C@H](C)/C=C/C=C/C=C/1C [rapamycin]
